Experimental data published in PubChem BioAssay AID1671190 (National Center for Advancing Translational Sciences (NCATS), 2021).
Where “and” joins values, the source holds several entries; their conditions need not be identical. Identical values can stand only once. Out of some 580,000 compounds screened, about 6,100 (1.1%) were called active. Inconclusive results, whose numbers are uncertain, are shown with a selection of clear calls. The call rests on the fitted dose curve; in most records, active means well fitted inhibition curve with a large enough effect; inconclusive means small, poorly fitted or top-dose-only effect, or another doubt; inactive means no such curve, though single readings can be large or run the other way. A potency beside an inconclusive call is a rough fit, not a confirmed value.

Sequences of proteins named here, by UniProt entry; tags and fusion partners are left off.
UniProt P18054, whole entry, looked up: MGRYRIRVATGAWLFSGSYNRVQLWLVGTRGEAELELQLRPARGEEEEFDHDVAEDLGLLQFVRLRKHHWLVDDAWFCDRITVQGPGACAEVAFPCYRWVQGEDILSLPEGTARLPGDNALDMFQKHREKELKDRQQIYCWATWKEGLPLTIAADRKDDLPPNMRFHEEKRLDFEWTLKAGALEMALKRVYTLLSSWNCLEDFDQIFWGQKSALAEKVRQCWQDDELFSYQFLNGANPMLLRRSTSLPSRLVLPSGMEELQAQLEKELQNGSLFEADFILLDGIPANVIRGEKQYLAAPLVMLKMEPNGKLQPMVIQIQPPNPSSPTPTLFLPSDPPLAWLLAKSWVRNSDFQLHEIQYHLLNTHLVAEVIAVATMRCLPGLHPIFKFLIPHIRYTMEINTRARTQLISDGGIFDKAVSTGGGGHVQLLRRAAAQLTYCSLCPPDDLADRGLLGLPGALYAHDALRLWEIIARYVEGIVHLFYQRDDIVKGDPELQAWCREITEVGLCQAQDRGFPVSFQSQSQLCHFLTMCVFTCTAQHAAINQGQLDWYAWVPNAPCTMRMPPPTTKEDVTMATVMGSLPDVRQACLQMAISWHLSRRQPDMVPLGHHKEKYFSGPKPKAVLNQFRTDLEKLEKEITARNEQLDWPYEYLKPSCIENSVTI

Target: Polyunsaturated fatty acid lipoxygenase ALOX12 (Homo sapiens) (UniProt P18054)
Assay: Primary qHTS assay for inhibitors of human arachidonate 12S-lipoxygenase (ALOX12): Round 2
Settings: purified 12hLO, xylenol orange hydroperoxide absorbance; series mostly up to 108 µM
Outline: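 Purified human 12hLO at 150 nM in 25 mM Hepes, 0.01% Triton X-100, pH 7.0, preincubated 15 min at room temperature with compound. Reaction started with 40 uM arachidonic acid, 30 min at room temperature. Hydroperoxide measured by Fe-xylenol orange, 573/405 nm absorbance ratio.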
Potency means the concentration at half of the fitted maximal effect.

Row | SMILES | Potency
1 | CCCCN(C)c1nc(-c2ccco2)c2c(c1C#N)CC(C)(C)OC2 | active: 39.8 µM
2 | COc1ccc(CNC(=O)c2ccc(-c3nc(CSc4ccccc4)c(C)o3)cc2)cc1 | inconclusive: 100 µM [inhibitor, partial curve, poor fit]
3 | CN(C(=O)CCc1ncc(-c2ccc(Cl)cc2)o1)C1C2CC3CC(C2)CC1C3 (centres undefined) | inactive
4 | O=C(OCC(=O)N1CCC(c2ccccc2)=N1)c1cc2c(s1)CCCC2 | inconclusive: 39.8 µM [inhibitor, partial curve, poor fit]
5 | CCOc1ccc(-c2nnc3ccc(SCC(=O)N4CCCCC4)nn23)cc1 | inactive
6 | Cc1cccc(C)c1-n1nnnc1C(c1ccnc2ccccc12)N1CCN(CCN(C)C)CC1 (centres undefined) | inactive
7 | CC(C)(C)c1ccc(OCCNC(=S)Nc2ccccc2)cc1 | active: 44.7 µM
8 | Cc1ccc(NC(=S)NC(=O)c2ccccc2)cc1NC(=S)NC(=O)c1ccccc1 | active: 3.98 µM
9 | COC(=O)C1=C[C@@H](C(=O)OC)[C@@H]2C3=C(C(=O)[C@]2(CC(C)C)NC(=O)c2ccccc2)[C@H](C)n2c(=O)n(-c4ccccc4)c(=O)n2[C@@H]3C1 | inconclusive: 35.5 µM [inhibitor, partial curve, poor fit]
10 | CCCCCNC1=CC(=O)CC(c2ccccc2)C1 (centres undefined) | inactive
11 | Cc1cc(N2CCCCC2)n2ncc(-c3ccc(Cl)cc3)c2n1 | inactive
12 | CC(c1ccccc1Cl)n1cnc2c1c(=O)n(C)c(=O)n2C (centres undefined) | inconclusive: 112 µM [inhibitor, partial curve, poor fit]
13 | Cc1cc([N+](=O)[O-])cc(/C=N\NC(=O)C2COc3ccccc3O2)c1O (centres undefined) | inconclusive: 14.1 µM [inhibitor, full curve]
14 | CNCCCNC(=O)/C(=N\O)c1ccccc1 | inconclusive: 50.1 µM [inhibitor, partial curve, poor fit]
15 | CN(c1ccc(OCC(=O)N2CCN(c3ccc(F)cc3)CC2)cc1)S(=O)(=O)c1cccs1 | inconclusive: 89.1 µM [inhibitor, partial curve, poor fit]
16 | CC(Sc1nnc(N2CCCC2)n1-c1ccccc1Cl)c1nnc(-c2cccs2)o1 (centres undefined) | inconclusive: 89.1 µM [inhibitor, single point]
17 | CCOC(=O)c1c(C)[nH]c(C(=O)C(C)OC(=O)Cn2cc(C(F)(F)F)ccc2=O)c1C (centres undefined) | inconclusive: 44.7 µM [inhibitor, partial curve, poor fit]
18 | Oc1ccccc1Nc1nc(NCc2ccccc2)c2ccccc2n1 | inconclusive: 44.7 µM [inhibitor, partial curve, poor fit]
19 | Cc1ccc(C(C(=O)NCc2c(C)n[nH]c2C)N(C)C)cc1 (centres undefined) | inactive
20 | CCc1c(C)sc(NC(=S)N2CCN(C(=O)C3CCCO3)CC2)c1C(=O)OC (centres undefined) | inconclusive: 56.2 µM [inhibitor, partial curve, poor fit]
21 | O=C(CN1C(=O)NC(c2ccc(Cl)cc2)C2=C1COC2=O)Nc1cccc(F)c1 (centres undefined) | inconclusive: 25.1 µM [inhibitor, full curve]
22 | CN(C)N1C(=O)CC(c2cccc(Cl)c2Cl)C2=C1CC(C)(C)CC2=O (centres undefined) | inconclusive: 141 µM [inhibitor, single point]

Row | SMILES | Potency
23 | c1ccc(CN2CCC(=NNc3nncc4ccccc34)CC2)cc1 | inconclusive: 79.4 µM [inhibitor, partial curve, poor fit]
24 | CC1=C(\C=C/C(C)=C/C=C\C(C)=C\C(=O)O)C(C)(C)CCC1 | inactive and inconclusive: 126 µM [inhibitor, single point]
25 | O=C(NCCCN1CCCC1=O)c1c(O)nc2sccn2c1=O | inconclusive: 4.47 µM [inhibitor, full curve]
26 | CC(C)CCN1CCCC1C(=O)O (centres undefined) | inconclusive: 89.1 µM [inhibitor, single point]
27 | CC(C)(C)c1cc(NC(=O)NN2CCOCC2)nn1-c1c(Cl)cc(Cl)cc1Cl | inconclusive: 50.1 µM [inhibitor, single point]
28 | CCOC(=O)C1=CCN(S(=O)(=O)c2ccccc2Br)C1c1ccc(Cl)cc1 (centres undefined) | inconclusive: 126 µM [inhibitor, single point]
29 | COc1cccc2c1OCC(C(=O)O)C2 (centres undefined) | inconclusive: 2.82 µM [inhibitor, full curve, poor fit]
30 | N#Cc1c(Cl)cccc1Oc1ccc(S(=O)(=O)Nc2ccccc2)cc1 | inconclusive: 158 µM [inhibitor, single point]
31 | Cc1cc(N2C(=O)C(=O)/C(=C(/O)c3ccc(Cl)cc3)C2c2cccc(Br)c2)no1 (centres undefined) | inconclusive: 7.08 µM [inhibitor, full curve, poor fit]
32 | OC[C@H]1O[C@@H](n2cnc3c2NC=NC[C@@H]3O)C[C@H]1O | inconclusive: 10.9 µM [inhibitor, single point]
33 | O=C(NCCCN1CCN(c2ccc(F)cc2)CC1)c1cccc(N2CCCC2=O)c1 | inactive
34 | O=C(CSc1ncc(-c2ccc(F)cc2)o1)Nc1ccc(F)c(Cl)c1 | inactive
35 | O=C(COC(=O)c1cccnc1Nc1cccc(C(F)(F)F)c1)NCc1ccco1 | inconclusive: 28.2 µM [inhibitor, partial curve, poor fit]
36 | COC(=O)c1ccccc1NC(=O)NC1CCCCC1 | inconclusive: 126 µM [inhibitor, partial curve, poor fit]
37 | O=C(CN(Cc1ccco1)C(=O)c1cc(=O)[nH]c2ccccc12)Nc1ccccc1Br | inactive
38 | CCc1ccc(/C=N/n2c(COc3ccccc3)n[nH]c2=S)cc1 | inconclusive: 31.6 µM [inhibitor, partial curve, poor fit]
39 | CCOC(=O)c1cc(-c2cc3ccccc3o2)n[nH]1 | inconclusive: 141 µM [inhibitor, partial curve, poor fit]
40 | Cc1ccc(S(=O)(=O)/N=C2/NC(=O)/C(=C/c3ccncc3)S2)cc1 | inconclusive: 56.2 µM [inhibitor, partial curve, poor fit]
41 | CCOC(=O)N1CCN(CC(O)c2ccc3c(c2)CCN3)CC1 (centres undefined) | inactive
42 | O=C(CSc1cn(Cc2cccc(F)c2)c2ccccc12)N1CCCCC1 | inconclusive: 89.1 µM [inhibitor, single point]
43 | Cc1ccc(C(=O)NC(=S)NCc2ccccc2)cc1 | active: 10 µM
44 | CN1CCN(c2ncc3nc(CCc4ccccc4)c(=O)n(Cc4ccc(F)cc4)c3n2)CC1 | inconclusive: 31.6 µM [inhibitor, partial curve, poor fit]

Row | SMILES | Potency
45 | COCc1cc(C)nc2sc(C(=O)Nc3nccs3)c(N)c12 | inactive
46 | Cc1cn([C@H]2C[C@H](O)[C@@H](/C=C/C(=O)NCCc3cccnc3)O2)c(=O)[nH]c1=O | inconclusive: 89.1 µM [inhibitor, partial curve, poor fit]
47 | CCOC(=O)C1=C(CN2CCN(c3ccc(Cl)cc3)CC2)NC(=O)NC1c1ccc(F)cc1 (centres undefined) | inconclusive: 56.2 µM [inhibitor, partial curve, poor fit]
48 | COC(=O)c1c(-c2cccc(OC)c2)csc1N | inconclusive: 44.7 µM [inhibitor, partial curve, poor fit]
49 | O=C(O)c1ccc(OCc2nnnn2-c2ccccc2)cc1 | inactive
50 | COc1cccc(-c2ccc3ncnc(NCCN4CCOCC4)c3c2)c1 | inconclusive: 35.5 µM [inhibitor, partial curve, poor fit]
51 | Cn1c(=NC(=O)c2ccccc2[N+](=O)[O-])sc2cc(S(C)(=O)=O)ccc21 | inconclusive: 89.1 µM [inhibitor, single point]
52 | O=C(c1ccco1)N1CCN(CC2(O)CCNC2)CC1 (centres undefined) | inconclusive: 10 µM [inhibitor, full curve]
53 | CCN(CC)Cc1cc(C(=O)O)c(-c2ccccc2)o1 | inconclusive: 39.8 µM [inhibitor, partial curve]
54 | CC(C)(C)c1ccc(Cn2nnc3c(=O)[nH]c(C4CCN(C(=O)c5ccco5)CC4)nc32)cc1 | inconclusive: 56.2 µM [inhibitor, partial curve, poor fit]
55 | COc1cc(S(=O)(=O)n2c(C)nc3ccccc32)ccc1F | inconclusive: 44.7 µM [inhibitor, partial curve, poor fit]
56 | CCC(c1nnc(SCc2nc3ccccc3s2)n1Cc1ccccc1)N(C)C (centres undefined) | inconclusive: 112 µM [inhibitor, partial curve, poor fit]
57 | CC(C)(C)c1cc(C[C@H]2CNCC[C@H]2CC(=O)Nc2ccccc2)no1 | inconclusive: 112 µM [inhibitor, partial curve]
58 | Nc1ccc(Oc2ccc(N)c([N+](=O)[O-])c2)cc1[N+](=O)[O-] | inconclusive: 89.1 µM [inhibitor, partial curve, poor fit]
59 | Cc1ccc2oc(-c3ccc(Cl)cc3Cl)cc(=O)c2c1 | inconclusive: 35.5 µM [inhibitor, single point]
60 | Nc1scc2c(C(=O)N/N=C/c3ccc(Cl)cc3)nn(-c3ccccc3)c(=O)c12 | active: 6.31 µM
61 | COc1ccc(OCC(=O)NCCN2CCN(S(=O)(=O)c3ccc(C)cc3)CC2)cc1 | inconclusive: 7.94 µM [inhibitor, full curve]
62 | O=C(O)CN1C(=O)/C(=C\c2ccccc2OCc2ccc(Cl)cc2Cl)SC1=S | inactive
63 | O=C(Nc1cccc(F)c1)C1CCN(c2nc3ccccc3nc2C(F)(F)F)CC1 | inconclusive: 158 µM [inhibitor, partial curve, poor fit]
64 | COc1ccccc1CC(C#N)C(=O)Nc1ccccc1C (centres undefined) | inactive
